Reference: patent US20210371817A1, “COMPOSITIONS AND METHODS FOR PRECISE PATTERNING OF POSTERIOR NEUROECTODERM FROM HUMAN PLURIPOTENT STEM CELLS” (WISCONSIN ALUMNI RESEARCH FOUNDATION, priority 2013, published 2021)
Some of these results come from one statement about several compounds together. At least one structure is not confirmed: it was looked up by name or label, or the drawing left a doubt.

System: neuromesodermal cultures
Assay: Effect of signaling pathway inhibitors on neuromesodermal identity (Sox2 and T by flow cytometry)
Details: LY-294002 10 μM, U0126 10 μM, GF109203X 3 μM, or all three at 1 μM; after 2 days
Excerpt: (FIG. 13A) Timeline of neuromesodermal differentiation and inhibitor addition. (FIG. 13B) Neuromesodermal identity assessed by Sox2 and Brachyury (T) expression after two days. Grey histograms, IgG control. Red histograms, label of interest. LY, LY-294002; U0126, U0126; Gf, GF109203X.
In an attempt to identify which downstream signaling pathways are responsible for FGF's effects, we performed our protocol with various combinations of a PI3K inhibitor (LY-294002), an MEK inhibitor (U0126), and a PKC inhibitor (GF109203X), and measured Sox2 and T levels using flow cytometry.

## CN(C)CCCn1cc(C2=C(c3c[nH]c4ccccc34)C(=O)NC2=O)c2ccccc21 [GF109203X]
  Brachyury+ cells: 70-85%
